Source: PubChem BioAssay AID250 (DTP/NCI, 2004)
The list is a part of this screen's results and no random one: its compounds were picked by chemical class. Not every dose and run of a compound is shown. T/C: endpoint of the treated group in % of that of the vehicle group. For survival time, this PubChem deposit counts one and a half times the control or more as active, and values a quarter to a half above the control carry no call in these data; other NCI protocols may use other cut-offs. Some entries show no survivor count and are marked so; the dose need not have been tolerated. Schedules are NCI's codes, taken here to give the interval after Q, in days (D) or hours (H), and the number of doses after X. Some schedules carry Z or #; the key to these is not given. Marks such as (2×) say how often a value occurs here. Some doses were run more than once; the results are listed from low to high.

Legend:
[1] = tested on: BDF1 mice, L1210 leukemia sc, survival T/C; experiment: NCI In Vivo Anticancer Drug Screen. Data for tumor model L1210 Leukemia (subcutaneous) in B6D2F1 (BDF1) mice; conditions: T/C endpoint: median survival time, higher T/C = longer survival
Experimental: (§1) The antitumor activity of compounds was measured in mice bearing transplantable tumors. Survival or tumor size were measured and the results are expressed as the measurement made in the treated group (T) divided by the measurement made in the vehicle treated control group (C). The tumor model used in this assay is L1210 Leukemia (subcutaneous) in B6D2F1 (BDF1) mice

[2] = tested on: BDF1 mice, L1210 leukemia sc; experiment: as above; conditions: T/C endpoint: median survival time, schedule: Q01DX Z (sc), higher T/C = longer survival
Experimental: as §1

[3] = dose: 5.0 mg/kg/injection, schedule: Q01DX Z (sc), vehicle: methylcellulose (MC)
[4] = dose: 23.0 mg/kg/injection, schedule: Q01DX Z (sc), vehicle: methylcellulose (MC)
[5] = dose: 39.0 mg/kg/injection, schedule: Q01DX Z (sc), vehicle: methylcellulose (MC)
[6] = dose: 8.4 mg/kg/injection, schedule: Q01DX Z (sc), vehicle: methylcellulose (MC)
[7] = dose: 8.4 mg/kg/injection, schedule: Q01DX Z (sc), vehicle: saline
[8] = dose: 14.0 mg/kg/injection, schedule: Q01DX Z (sc), vehicle: methylcellulose (MC)
[9] = dose: 14.0 mg/kg/injection, schedule: Q01DX Z (sc), vehicle: saline
[10] = dose: 23.0 mg/kg/injection, schedule: Q01DX Z (sc), vehicle: saline
[11] = dose: 39.0 mg/kg/injection, schedule: Q01DX Z (sc), vehicle: saline
[12] = dose: 65.0 mg/kg/injection, schedule: Q01DX Z (sc), vehicle: methylcellulose (MC)
[13] = dose: 65.0 mg/kg/injection, schedule: Q01DX Z (sc), vehicle: saline
[14] = dose: 5.0 mg/kg/injection, schedule: Q01DX Z (sc), vehicle: saline
[15] = dose: 108.0 mg/kg/injection, schedule: Q01DX Z (sc), vehicle: saline

With `Cn1c(=O)[nH]cc(N(CCCl)CCCl)c1=O` the T/C [1, 3] was 112 [survivor count not shown] and 122 % of control [survivor count not shown], the T/C [1, 4] was 122 % of control [survivor count not shown] and the T/C [1, 5] was 122 % of control [survivor count not shown]. The T/C ([2]; dose: 8.4 mg/kg/injection, vehicle: methylcellulose (MC)) was 138 % of control [survivor count not shown] and the T/C ([2]; dose: 14.0 mg/kg/injection, vehicle: methylcellulose (MC)) was 127 % of control [survivor count not shown].

In the case of `ClCCN(CCCl)Cc1nc2ccccc2[nH]1`, the T/C [1, 3] is reported as 104 % of control [survivor count not shown], the T/C [1, 6] is reported as 104 % of control [survivor count not shown] and the T/C [1, 7] is reported as 100 % of control [survivor count not shown]. For the same compound, the T/C [1, 8] was 100 % of control [survivor count not shown] (2×), the T/C [1, 9] was 111 % of control [survivor count not shown] and the T/C [1, 4] was 105 [survivor count not shown] and 109 % of control [survivor count not shown]. The T/C [1, 10] was 105 % of control [survivor count not shown], the T/C [1, 5] was 100 [survivor count not shown] and 111 % of control [survivor count not shown] and the T/C [1, 11] was 111 % of control [survivor count not shown]. For the same compound, the T/C [1, 12] was 104 % of control [survivor count not shown] and the T/C [1, 13] was 100 % of control [survivor count not shown].

With `CC(C(=O)O)N(CCCl)CCCl` (configuration not stated) the T/C ([1]; dose: 1.8 mg/kg/injection, schedule: Q01DX Z (sc), vehicle: saline) was 111 % of control [survivor count not shown], the T/C [1, 10] was 116 % of control [survivor count not shown] and the T/C ([2]; dose: 14.0 mg/kg/injection, vehicle: saline) was 127 % of control [survivor count not shown].

`NC(Cc1cccc(N(CCCl)CCCl)c1)C(=O)O` (configuration not stated) was tested, and the T/C ([1]; dose: 3.0 mg/kg/injection, schedule: Q01DX Z (sc), vehicle: saline) was 100 % of control [survivor count not shown], the T/C [1, 14] was 122 % of control [survivor count not shown] and the T/C [1, 9] was 122 % of control [survivor count not shown]. The T/C [1, 10] was 122 % of control [survivor count not shown], the T/C [1, 11] was 122 % of control [survivor count not shown] and the T/C [1, 13] was 122 % of control [survivor count not shown]. For the same compound, the T/C [1, 15] was 111 % of control [survivor count not shown] and the T/C ([2]; dose: 8.4 mg/kg/injection, vehicle: saline) was 133 % of control [survivor count not shown].

`NC(Cc1ccccc1N(CCCl)CCCl)C(=O)O` (configuration not stated) was tested, and the T/C [1, 14] was 122 % of control [survivor count not shown], the T/C [1, 7] was 122 % of control [survivor count not shown] and the T/C [1, 9] was 122 % of control [survivor count not shown]. For the same compound, the T/C [1, 10] was 122 % of control [survivor count not shown], the T/C [1, 11] was 122 % of control [survivor count not shown] and the T/C [1, 13] was 111 % of control [survivor count not shown]. The T/C ([2]; dose: 1.8 mg/kg/injection, vehicle: saline) was 133 % of control [survivor count not shown] and the T/C ([2]; dose: 3.0 mg/kg/injection, vehicle: saline) was 133 % of control [survivor count not shown].

For `ClCCNCCCl`, the T/C ([1]; dose: 10.0 mg/kg/injection, schedule: Q01DX009 (ip), vehicle: saline) was 90 % of control [survivor count not shown], the T/C [1, 9] was 100 % of control [survivor count not shown] (2×) and the T/C ([1]; dose: 20.0 mg/kg/injection, schedule: Q01DX009 (ip), vehicle: saline) was 100 % of control [survivor count not shown]. The T/C [1, 4] was 100 % of control [survivor count not shown], the T/C [1, 10] was 100 % of control [survivor count not shown] (3×) and the T/C [1, 5] was 104 % of control [survivor count not shown]. For the same compound, the T/C [1, 11] was 100 [survivor count not shown] and 105 % of control [survivor count not shown], the T/C ([1]; dose: 40.0 mg/kg/injection, schedule: Q01DX009 (ip), vehicle: saline) was 110 % of control [survivor count not shown] and the T/C [1, 12] was 122 % of control [survivor count not shown]. The T/C [1, 13] was 109 [survivor count not shown] and 113 % of control [survivor count not shown], the T/C ([1]; dose: 80.0 mg/kg/injection, schedule: Q01DX009 (ip), vehicle: saline) was 115 % of control [survivor count not shown] and the T/C [1, 15] was 118 [survivor count not shown] and 122 % of control [survivor count not shown]. For the same compound, the T/C ([1]; dose: 180.0 mg/kg/injection, schedule: Q01DX Z (sc), vehicle: methylcellulose (MC)) was 109 % of control [survivor count not shown], the T/C ([1]; dose: 180.0 mg/kg/injection, schedule: Q01DX Z (sc), vehicle: saline) was 118 % of control [survivor count not shown] and the T/C ([1]; dose: 180.0 mg/kg/injection, schedule: Q03DX Z (sc), vehicle: saline) was 150 % of control [survivor count not shown]. For the same compound, the T/C ([1]; dose: 300.0 mg/kg/injection, schedule: Q01DX Z (sc), vehicle: methylcellulose (MC)) was 100 % of control [survivor count not shown], the T/C ([1]; dose: 300.0 mg/kg/injection, schedule: Q01DX Z (sc), vehicle: saline) was 100 % of control [survivor count not shown] and the T/C ([1]; dose: 300.0 mg/kg/injection, schedule: Q03DX Z (sc), vehicle: saline) was 120 % of control [survivor count not shown]. The T/C ([1]; dose: 500.0 mg/kg/injection, schedule: Q03DX Z (sc), vehicle: saline) was 120 % of control [survivor count not shown], the T/C ([2]; dose: 65.0 mg/kg/injection, vehicle: saline) was 133 % of control [survivor count not shown] and the T/C ([2]; dose: 108.0 mg/kg/injection, vehicle: methylcellulose (MC)) was 127 % of control [survivor count not shown]. For the same compound, the T/C ([2]; dose: 108.0 mg/kg/injection, vehicle: saline) was 136 % of control [survivor count not shown] and the T/C ([2]; dose: 180.0 mg/kg/injection, vehicle: saline) was 133 % of control [survivor count not shown].

With `ClCCN(CCCl)Cc1nc2ccc(Cl)cc2[nH]1` the T/C [1, 8] was 100 % of control [survivor count not shown], the T/C [1, 4] was 100 % of control [survivor count not shown] and the T/C [1, 5] was 100 % of control [survivor count not shown]. For the same compound, the T/C [1, 12] was 88 % of control [survivor count not shown].

`COc1cccc(N(CCCl)CCCl)c1OC` was tested, and the T/C ([1]; dose: 1.8 mg/kg/injection, schedule: Q01DX Z (sc), vehicle: methylcellulose (MC)) was 100 % of control [survivor count not shown], the T/C ([1]; dose: 3.0 mg/kg/injection, schedule: Q01DX Z (sc), vehicle: methylcellulose (MC)) was 95 % of control [survivor count not shown] and the T/C [1, 3] was 90 % of control [survivor count not shown]. For the same compound, the T/C [1, 6] was 95 % of control [survivor count not shown], the T/C [1, 8] was 90 % of control [survivor count not shown] and the T/C [1, 4] was 90 % of control [survivor count not shown]. The T/C [1, 12] was 90 % of control [survivor count not shown] and the T/C ([1]; dose: 108.0 mg/kg/injection, schedule: Q01DX Z (sc), vehicle: methylcellulose (MC)) was 95 % of control [survivor count not shown].

With `O=C(O)CCOc1ccccc1N(CCCl)CCCl` the T/C ([1]; dose: 3.75 mg/kg/injection, schedule: Q01DX Z (sc), vehicle: carboxymethylcellulose (CMC)) was 88 % of control [survivor count not shown], the T/C ([1]; dose: 7.5 mg/kg/injection, schedule: Q01DX Z (sc), vehicle: carboxymethylcellulose (CMC)) was 88 % of control [survivor count not shown] and the T/C ([1]; dose: 15.0 mg/kg/injection, schedule: Q01DX Z (sc), vehicle: carboxymethylcellulose (CMC)) was 88 % of control [survivor count not shown]. For the same compound, the T/C ([1]; dose: 18.7 mg/kg/injection, schedule: Q01DX Z (sc), vehicle: carboxymethylcellulose (CMC)) was 100 % of control [survivor count not shown], the T/C ([1]; dose: 30.0 mg/kg/injection, schedule: Q01DX Z (sc), vehicle: carboxymethylcellulose (CMC)) was 88 % of control [survivor count not shown] and the T/C ([1]; dose: 37.5 mg/kg/injection, schedule: Q01DX Z (sc), vehicle: carboxymethylcellulose (CMC)) was 100 % of control [survivor count not shown]. The T/C ([1]; dose: 65.0 mg/kg/injection, schedule: Q01DX Z (sc), vehicle: carboxymethylcellulose (CMC)) was 94 % of control [survivor count not shown], the T/C ([1]; dose: 75.0 mg/kg/injection, schedule: Q01DX Z (sc), vehicle: carboxymethylcellulose (CMC)) was 100 % of control [survivor count not shown] and the T/C ([1]; dose: 108.0 mg/kg/injection, schedule: Q01DX Z (sc), vehicle: carboxymethylcellulose (CMC)) was 100 % of control [survivor count not shown]. For the same compound, the T/C ([1]; dose: 150.0 mg/kg/injection, schedule: Q01DX Z (sc), vehicle: carboxymethylcellulose (CMC)) was 112 % of control [survivor count not shown], the T/C ([1]; dose: 180.0 mg/kg/injection, schedule: Q01DX Z (sc), vehicle: carboxymethylcellulose (CMC)) was 111 % of control [survivor count not shown] and the T/C ([1]; dose: 300.0 mg/kg/injection, schedule: Q01DX Z (sc), vehicle: carboxymethylcellulose (CMC)) was 111 % of control [survivor count not shown].
